Results as given in PMC7819943, “Rice protein-binding microarrays: a tool to detect cis-acting elements near promoter regions in rice”.
This is one part of the list.

Protein sequences, listed by entry. Tags and fused reporters are not part of them.
UniProt Q0JBA9, entry or part of it: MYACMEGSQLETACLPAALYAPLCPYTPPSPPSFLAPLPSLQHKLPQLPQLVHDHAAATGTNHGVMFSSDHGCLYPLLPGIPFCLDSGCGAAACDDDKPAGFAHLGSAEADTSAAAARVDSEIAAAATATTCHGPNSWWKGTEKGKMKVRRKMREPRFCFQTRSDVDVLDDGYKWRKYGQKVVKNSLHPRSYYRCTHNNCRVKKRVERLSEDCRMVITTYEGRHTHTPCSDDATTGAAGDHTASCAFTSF

Each sequence was assayed against OsWRKY34 (Oryza sativa, UniProt Q0JBA9 1-250) (assay: protein-binding microarray (RPBM); PBS, 2% BSA, 51.3 ng/ul salmon testes DNA, 50 uM zinc acetate, 200 nM TF, 25 C, 1 h; high values mean tight binding). Conditions: protein: recombinant; tags: N-terminal polyhistidine and DsRed monomer fusion (pET32a); label: CyDye5-dUTP incorporated in the synthesized complementary strand; 3' TTTTT single-stranded linker to array surface; dsDNA, one strand shown.
Method in brief: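 An Axon 4000B scanner gave the binding signal as per-feature fluorescence intensity in arbitrary units. This followed washing of a custom Agilent array that had been incubated for 1 h at 25 °C with 200 nM protein in PBS, 2% BSA, salmon testes DNA and 50 µM zinc acetate. The proteins were transcription factors fused at the N-terminus to polyhistidine and DsRed, expressed in E. coli BL21-CodonPlus and purified on Ni–NTA.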

Sequence	binding signal
TTTACGTTTGAATCACCATTCTACATACTATTTAAATTTACGGAGTCACCTAGTGCAG	8100 fluorescence intensity (a.u.)
TTCTATCACATCAAAACTTTTCTACACACACAAACTTTCACGGAGTCACCTAGTGCAG	8700 fluorescence intensity (a.u.)
CCTCGTCGCGTTCATATTTGCTCACGGCTCGCGCGGCACTCGGAGTCACCTAGTGCAG	11900 fluorescence intensity (a.u.)
GGCTTGTTAGCCGATCGGCTGTTTGATCTATTATTTGCAACGGAGTCACCTAGTGCAG	8870 fluorescence intensity (a.u.)
GTGGTTTTTTCTTTTCCATTTTTTTGTTGCTTTCCGAAAGCGGAGTCACCTAGTGCAG	11400 fluorescence intensity (a.u.)
CCTATTAGTAGTAGGCAACACATAAAGCCTTTTTTATTCCCGGAGTCACCTAGTGCAG	8110 fluorescence intensity (a.u.)
TCATTCTTTTTCTCAATGTACTTGGATTTTTTTCATGTTTCGGAGTCACCTAGTGCAG	12200 fluorescence intensity (a.u.)
CATTCATCCATCTTTCCTTCCATCACTTGCTGGGCTAGCACGGAGTCACCTAGTGCAG	8220 fluorescence intensity (a.u.)
GGCCTCACTATCGTCGACTCCTCCACTCCGGGGACTGCCGCGGAGTCACCTAGTGCAG	10000 fluorescence intensity (a.u.)
GTCTGCTTGTTCGGAACCCCACTTTATCGTGTATCAATTCCGGAGTCACCTAGTGCAG	11200 fluorescence intensity (a.u.)
AACTCCCTCATTCGATCGCCGTCTTCTTCCAGCTCGAGCCCGGAGTCACCTAGTGCAG	8460 fluorescence intensity (a.u.)
GGATGGATGTGAATGGATGTGTGTACATGTTGCTAGTTGACGGAGTCACCTAGTGCAG	10500 fluorescence intensity (a.u.)
TCGACCCACCGTCTGCCACGTCAGCTTGCCGCCCACCAATCGGAGTCACCTAGTGCAG	8730 fluorescence intensity (a.u.)
TTTTTTTTAGTTCTGATCGGTATTTTTGGATGCTTTGAATCGGAGTCACCTAGTGCAG	8270 fluorescence intensity (a.u.)
GGGTTTAGGTTTTACAGGGAAATTTACATGGTTACCCTTACGGAGTCACCTAGTGCAG	8920 fluorescence intensity (a.u.)
GTGGGGCTTGTTCGTTGCTACCTCCTTCATCATCGGCTTGCGGAGTCACCTAGTGCAG	10500 fluorescence intensity (a.u.)
GATAATATTCGATTTCATTTTCGTATCCGAGTTTTCGATTCGGAGTCACCTAGTGCAG	8910 fluorescence intensity (a.u.)
GGAGGAGGTGGAGAAGGGGAGGCGGCCGGTGAGCAACGCGCGGAGTCACCTAGTGCAG	8550 fluorescence intensity (a.u.)
ACCACCAAATTTCCGGATTTCCGGTCCCGTGTATCCCCAACGGAGTCACCTAGTGCAG	9350 fluorescence intensity (a.u.)
AGACCAAATCTCACATCGCTTCCAATACCACCTCCTTCGCCGGAGTCACCTAGTGCAG	8030 fluorescence intensity (a.u.)
ACGCACCCGCACGCGCACGCATTTCCAGCTCGCGACGACGCGGAGTCACCTAGTGCAG	9330 fluorescence intensity (a.u.)
TGATACCCGCACCCATCTAGCACATCTCTCGCATCCCAATCGGAGTCACCTAGTGCAG	13900 fluorescence intensity (a.u.)
CTTCCTTCCAGCGATAGTGCTTCTTCCTGCTCTTCGTTTCCGGAGTCACCTAGTGCAG	10800 fluorescence intensity (a.u.)
ATCCCTCGTCTCCGCTATTTACTCCGTCAGTTGGCCAACTCGGAGTCACCTAGTGCAG	9690 fluorescence intensity (a.u.)
AGCGTATCACACAATATTAGTTAAATAAACTTCCTTTATTCGGAGTCACCTAGTGCAG	8480 fluorescence intensity (a.u.)
GTTCTCGTATAAGGGTCGTGTCGAATGGGCCAAAAAAACCCGGAGTCACCTAGTGCAG	8050 fluorescence intensity (a.u.)
CCTGCATCATCAATCTGCCTACATATCGATCGATTGATCTCGGAGTCACCTAGTGCAG	8480 fluorescence intensity (a.u.)

Sequence	binding signal
TGCGTGCGTCCATGTGTGTTCATTTGCATAATTGCATTGCCGGAGTCACCTAGTGCAG	9940 fluorescence intensity (a.u.)
GCAGATTTTGTTCTACTCTGTCCCACACTTTGTGGCCTCACGGAGTCACCTAGTGCAG	9450 fluorescence intensity (a.u.)
ACTTCTAACTTTTACATCACATCGAACTTTCTTACACACACGGAGTCACCTAGTGCAG	10500 fluorescence intensity (a.u.)
CCTCAAGACAGATCATCTCCTTTCGGTGCTTTGAAATTTTCGGAGTCACCTAGTGCAG	8560 fluorescence intensity (a.u.)
CGGGTATTCTCATCCTCATTCTCTCCGATCCCATTTCCCCCGGAGTCACCTAGTGCAG	9730 fluorescence intensity (a.u.)
CCCCGATGCGTTCTTATCCCCACGATTCATCCCACTGCATCGGAGTCACCTAGTGCAG	8130 fluorescence intensity (a.u.)
ACTCCGGTTTCGTCGTCCGTTTTGCCTCCGTCTCCGTCTCCGGAGTCACCTAGTGCAG	11300 fluorescence intensity (a.u.)
TTATCATTCTCTGTGCGCATACTTTTTAAATTGTTAAACGCGGAGTCACCTAGTGCAG	8860 fluorescence intensity (a.u.)
CGAGGTTGGATTTCGCGAGCACGCCCTTGTACACCCTGCCCGGAGTCACCTAGTGCAG	8770 fluorescence intensity (a.u.)
GCTTCTCCGCATCCATCAACCACTCACCCAGTTTTGCTGCCGGAGTCACCTAGTGCAG	11300 fluorescence intensity (a.u.)
CTCCTTCGTTCCGTGCTTGAAGAATTTGCCGGCGGCCATCCGGAGTCACCTAGTGCAG	9000 fluorescence intensity (a.u.)
GATCCGTCTTTGGTCTCTGCGGCCTTCACCAGTGCTCTTCCGGAGTCACCTAGTGCAG	8580 fluorescence intensity (a.u.)
TTGCCATCCATCTTCATATATCTATCTCTCTATACTACCTCGGAGTCACCTAGTGCAG	8890 fluorescence intensity (a.u.)
TACAAAGTACTACCCCAGCAGCCACCTTTGCATTTTTGCACGGAGTCACCTAGTGCAG	10300 fluorescence intensity (a.u.)
TCAATTCGTTATTCTTTTCTTTCCTACTATAAATTTCAGTCGGAGTCACCTAGTGCAG	8310 fluorescence intensity (a.u.)
GCGTGTTGTACTGTTCTCCCGCGGTCCCGCCCGAGCAGAGCGGAGTCACCTAGTGCAG	8720 fluorescence intensity (a.u.)
ACCATCTATATACCTTCGGTGCATATCAATGCGAAAACACCGGAGTCACCTAGTGCAG	9440 fluorescence intensity (a.u.)
GCCGGCCATGTCCGCCGCCCACGCCCACGCCCTGCAACGCCGGAGTCACCTAGTGCAG	11100 fluorescence intensity (a.u.)
CTAGATTTTTTGGTGACATTTTTTAGTTGGTGTGCACGTGCGGAGTCACCTAGTGCAG	10200 fluorescence intensity (a.u.)
TTTATGTTTCATATGCTTTCAGTGGTGCATTCTGTTTTTTCGGAGTCACCTAGTGCAG	12000 fluorescence intensity (a.u.)
TTCGCGAGCTCTCCTGCCTCCGCGTCGTCTTGGAATTTTTCGGAGTCACCTAGTGCAG	8820 fluorescence intensity (a.u.)
TTTTTTCTTTTCTTGTAACCCGTCTCCTGCTTATTGAAAACGGAGTCACCTAGTGCAG	8680 fluorescence intensity (a.u.)
AAACATTATTTTCTCATCTCCTTTTAAATTTTATTTTTTTCGGAGTCACCTAGTGCAG	11000 fluorescence intensity (a.u.)
CCCGCCCACTCACCCGCCCACGCGGCTGCCAGCCTACCAACGGAGTCACCTAGTGCAG	8860 fluorescence intensity (a.u.)
AATCCATTTTTTGTCAGATTCCACACAACCACATCTTTTTCGGAGTCACCTAGTGCAG	8160 fluorescence intensity (a.u.)
TCCACCACCACCACCACCACCACAACGGCCACCACAAGCGCGGAGTCACCTAGTGCAG	9630 fluorescence intensity (a.u.)
TTTTTCCCCTTATTTTTTTTCTCAAAAATCCATTTCCCTCCGGAGTCACCTAGTGCAG	8180 fluorescence intensity (a.u.)
